# Test results published in PubChem BioAssay AID624297 (National Center for Advancing Translational Sciences (NCATS), 2012).
# Out of some 340,000 compounds screened, about 6,200 (1.8%) were called active. Inconclusive results, whose numbers are uncertain, are shown with a selection of clear calls. Calls come from the whole dose curve; as a rule, active = well fitted activation curve with a large enough effect; inconclusive = small, poorly fitted or top-dose-only effect; inactive = no such curve, though single readings can be large or run the other way. A potency beside an inconclusive call is a rough fit, not a confirmed value.
# Test: A quantitative high throughput screen for small molecules that induce DNA re-replication in SW480 colon adenocarcinoma cells. Note: nearly all actives have a fitted effect of over 55% in size.
# Conditions: Hoechst DNA content imaging, 48 h; series mostly up to 46.1 µM
# Summary of the method: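 Quantitative HTS format with DMSO vehicle controls; 48 hr drug incubation at 37 C, then 40 min Hoechst staining and scanning imager measurement at 405 nm excitation.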
# Potency is the fitted concentration of half-maximal effect.
row,SMILES,Potency
1,CC(=O)NS(=O)(=O)c1ccc(NC(=O)/C=C/c2cn(-c3ccccc3)nc2-c2ccccc2)cc1,"inconclusive: 29.1 µM [activator, partial curve, poor fit]"
2,CCCCCC/C(C=O)=C\c1ccccc1,"inconclusive: 0.184 µM [activator, partial curve, poor fit]"
3,Cc1ccc(C(=O)N/N=C/c2cn(Cc3ccccc3)c3ccccc23)cn1,"inconclusive: 3.26 µM [activator, single point]"
4,O=C1C2C(C(=O)N1/N=C/c1ccc([N+](=O)[O-])o1)C1C=CC2C12CC2 (configuration not stated),"inconclusive: 29.1 µM [activator, single point]"
5,Cc1ccc(NC2=C(NCCO)C(=O)c3ccccc3C2=O)cc1,"inconclusive: 25.9 µM [activator, single point]"
6,CCOC(=O)[C@H](O)[C@@H](O)c1cccc([C@H](O)[C@@H](O)C(=O)OCC)c1,"inconclusive: 0.411 µM [activator, full curve, poor fit]"
7,COc1ccc(-c2cc3ccccc3s2)cc1[C@H]1[C@H]2C=CC[C@@H](C)[C@@H]2C(=O)N1Cc1ccccc1,inactive
8,COc1ccc(/C=N/NC(=O)c2cc(C3CC3)[nH]n2)cc1OC,"inconclusive: 29.1 µM [activator, single point]"
9,COC(=O)C1=C(C)N(CCc2ccc(OC)c(OC)c2)C(=O)/C1=C\c1ccc(O)cc1,"inconclusive: 29.1 µM [activator, single point]"
10,Cc1ccc(SCC(=O)OCC(=O)N(CCC#N)c2ccccc2)cc1,inactive
11,Cc1cccc(OC(C)C(=O)Nc2nccs2)c1 (configuration not stated),"inconclusive: 11.6 µM [activator, partial curve, poor fit]"
12,CCS(=O)(=O)N1CCC(NC(=O)C(Cc2cccc(OC)c2OC)NC(C)=O)CC1 (configuration not stated),"inconclusive: 23.1 µM [activator, single point]"
13,COc1ccc(C2CC(c3ccc(F)cc3)=NN2c2ccccc2)cc1OC (configuration not stated),"inconclusive: 18.4 µM [activator, single point]"
14,CCCCC1=NN(C(=O)c2ccco2)C(O)(C(F)(F)F)C1 (configuration not stated),"inconclusive: 29.1 µM [activator, single point]"
15,CCC(C(=O)NC1CCCCC1)n1c(SCc2ccccc2F)nc2ccncc21 (configuration not stated),inactive
16,Cc1ccc(S(=O)(=O)N2CCOCC2)cc1C(=O)NC1=NCCS1,inactive
17,COCCNC(=S)N/N=C/c1ccc2c(c1)OCCO2,inactive
18,COc1cccc(/C=C(/C#N)c2ccc(F)cc2)c1OCc1cccc(C(=O)O)c1,inactive
19,CSc1ncccc1C(=O)N1CCN(S(=O)(=O)c2ccc3c(c2)OCCO3)CC1,inactive
20,Cc1cc2oc(C(=O)Nc3ccc(S(=O)(=O)Nc4nccs4)cc3)cc(=O)c2cc1Cl,"inconclusive: 20.6 µM [activator, single point]"
21,C=C1C(=O)O[C@@H]2C[C@@H](C)[C@@H]3C=CC(=O)[C@@]3(C)[C@@H](OC(C)=O)[C@H]12,"inconclusive: 0.82 µM [activator, full curve]"

# In another format: results already given
row	SMILES	Potency
5	Cc1ccc(NC2=C(NCCO)C(=O)c3ccccc3C2=O)cc1	inconclusive: 25.9 µM [activator, single point]
6	CCOC(=O)[C@H](O)[C@@H](O)c1cccc([C@H](O)[C@@H](O)C(=O)OCC)c1	inconclusive: 0.411 µM [activator, full curve, poor fit]
7	COc1ccc(-c2cc3ccccc3s2)cc1[C@H]1[C@H]2C=CC[C@@H](C)[C@@H]2C(=O)N1Cc1ccccc1	inactive
8	COc1ccc(/C=N/NC(=O)c2cc(C3CC3)[nH]n2)cc1OC	inconclusive: 29.1 µM [activator, single point]
9	COC(=O)C1=C(C)N(CCc2ccc(OC)c(OC)c2)C(=O)/C1=C\c1ccc(O)cc1	inconclusive: 29.1 µM [activator, single point]

# Next structures follow.

row,SMILES,Potency
1,Cc1ccc(NC(=O)c2cc(N(C)C)ccc2[P+](=O)O)cc1,"inconclusive: 20.6 µM [activator, single point]"
2,CC(=O)N1CCN(CC(O)COc2ccc(OCc3ccccc3)cc2)CC1 (configuration not stated),inactive
3,O=C(O)c1ccc(N=Nc2c(O)[nH]c3cc(Cl)ccc23)cc1,"inconclusive: 25.9 µM [activator, single point]"
4,CO[C@H](C(=O)[C@@H](O)[C@@H](C)O)C1Cc2cc3cc(O[C@H]4C[C@@H](O[C@H]5C[C@@H](O)[C@H](O)[C@@H](C)O5)[C@@H](O)[C@@H](C)O4)c(C)c(O)c3c(O)c2C(=O)[C@H]1O[C@H]1C[C@@H](O[C@H]2C[C@@H](O[C@H]3C[C@](C)(O)[C@H](O)[C@@H](C)O3)[C@H](O)[C@@H](C)O2)[C@H](O)[C@@H](C)O1 (some centres not stated),"inconclusive: 0.0376 µM [activator, full curve, poor fit]"
5,O=C(Cn1cc(COc2c(F)c(F)cc(F)c2F)nn1)c1ccc(O)cc1,inactive
6,CCN(CC)CCNC(=O)c1ccc(NC(=O)c2ccc(Cl)c(S(=O)(=O)N3CCCCCC3)c2)cc1,"inconclusive: 23.1 µM [activator, single point]"
7,CC[C@]12c3[nH]c4ccccc4c3CCN1C(=O)C(CC(=O)NC/C=C(\C)CCC=C(C)C)C[C@@H]2C(=O)N1CCN(C(=O)c2ccco2)CC1 (some centres not stated),"inconclusive: 25.9 µM [activator, partial curve, poor fit]"
8,Nc1cc(N)nc(SCc2ccccc2)n1,inactive
9,O=C(O)C1CC=CCC1C(=O)N1CCN(c2nc(-c3ccccc3)c3ccccc3n2)CC1 (configuration not stated),"inconclusive: 18.4 µM [activator, partial curve, poor fit]"
10,C=CCNC(=O)CN1CCC(n2c(C)nc3cc(C(F)(F)F)ccc32)CC1,inactive
11,COc1cccc(C2C(C(=O)c3ccc(C)o3)=C(O)C(=O)N2c2cc(C)on2)c1 (configuration not stated),"inconclusive: 18.4 µM [activator, single point]"
12,CC(C)C[C@H]1CN([C@@H](CC(C)C)CN2CCCC2CN2C(=S)NC[C@@H]2Cc2ccc(O)cc2)C(=S)N1CCc1ccccc1 (some centres not stated),"inconclusive: 0.651 µM [activator, partial curve, poor fit]"
13,N[C@H](Cc1c[nH]c2ccccc12)C(=O)O,"inconclusive: 33.5 µM [activator, single point]"
14,CC(C)Cc1nc2sc3c(c2c(=O)n1N)CC(C)(C)OC3,"inconclusive: 29.1 µM [activator, single point]"
15,COc1cc2sc(-c3ccccc3OC)c(-c3ccc(O)cc3)c2cc1OC,"inconclusive: 29.1 µM [activator, single point]"
16,CCNC(=S)N=Nc1c(O)n(Cc2ccc(Cl)cc2)c2ccccc12,"inconclusive: 29.1 µM [activator, single point]"
17,CCCC(CNC(=O)COC(=O)C1=NNC(=O)CC1)c1ccc(Cl)cc1Cl (configuration not stated),inactive
18,Cc1ccc2oc(C(=O)N(C)Cc3ccc(C)o3)c(C)c2c1,"inconclusive: 25.9 µM [activator, single point]"
19,CN(C)C(=O)CCc1ccc2c3c([nH]c2c1)[C@]1(CCc2ccccc2)[C@@H](C(=O)N2CCCCC2)C[C@H](CC(=O)NCCc2ccccn2)C(=O)N1CC3,"inconclusive: 4.11 µM [activator, single point]"
20,Cc1ccc(NC(=O)CN2C(=O)NC3(CCCCCCC3)C2=O)cc1C,inactive
21,COc1ccccc1/C=C1\SC(=S)N(CCC(=O)N2CCN(C)CC2)C1=O,"inconclusive: 29.1 µM [activator, single point]"

row,SMILES,Potency
1,COc1ccc(CCNC(=O)C2CCN(C(=O)c3ccc(F)cc3)CC2)cc1,"inconclusive: 0.517 µM [activator, full curve, poor fit]"
2,O=C(NCCCN1CCC(Cc2ccccc2)CC1)c1ccc2nc(N3CCOCC3)sc2c1,"inconclusive: 9.2 µM [activator, partial curve, poor fit]"
3,COc1ccc(C(=O)/C=C/Sc2nc3ccccc3o2)cc1,"inconclusive: 2.59 µM [activator, full curve]"
4,COc1cccc(N/N=C/c2cccc(Br)c2O)c1,"inconclusive: 29.1 µM [activator, single point]"
5,Cc1cccc(C2=NN(c3ccc(Br)cc3)[C@@H](C(=O)N3CCOC3=O)[C@@H]2C)c1,"inconclusive: 0.92 µM [activator, full curve, poor fit]"
6,O=C(CNc1ccccc1)N/N=C/c1c[nH]c2ccccc12,"inconclusive: 29.1 µM [activator, single point]"
7,Cc1nc(N2CCN(C(=O)c3ccco3)CC2)c(C#N)c2c1CCCC2,inactive
8,N#Cc1ccccc1S(=O)(=O)c1ccccc1C(=O)Nc1ccccc1,inactive
9,O=C(COc1ccc(Cl)cc1)NCCCNC(=O)c1ccncc1,inactive
10,Cc1ccc2[nH]c(=O)c(CN(CC3CCCO3)C(=S)Nc3ccccc3)cc2c1 (configuration not stated),"inconclusive: 1.3 µM [activator, partial curve, poor fit]"
11,CCOC(=O)N1CCN(C(=O)c2ccc(Cl)c(S(=O)(=O)N3CCCC3)c2)CC1,"inconclusive: 20.6 µM [activator, single point]"
12,O=C(C(Sc1ccccc1)c1ccccc1)N1CCOCC1 (configuration not stated),"inconclusive: 1.03 µM [activator, full curve, poor fit]"
13,Nc1ncnc(N2CCOCC2)c1N,active: 20.6 µM
14,O=C(COc1ccccc1)NCC(c1ccco1)N1CCN(c2ccccc2F)CC1 (configuration not stated),"inconclusive: 18.4 µM [activator, single point]"
15,O=C1OCCN1C(=O)[C@H]1[C@H](c2ccc(Cl)cc2)C(c2ccc(F)cc2)=NN1c1ccccc1,"inconclusive: 5.17 µM [activator, partial curve, poor fit]"
16,CCN(c1ccccc1)S(=O)(=O)c1ccc(C(=O)NCC(=O)Nc2ccc(F)c(F)c2F)cc1,"inconclusive: 18.4 µM [activator, single point]"
17,CS(=O)(=O)c1ccc(C(=O)OCC(=O)N2CCCc3ccccc32)cc1,"inconclusive: 20.6 µM [activator, single point]"
18,CCOC(=O)C1=C(C)N=C2SC(C(=O)OC)=CC(=O)N2C1c1ccc(F)cc1 (configuration not stated),inactive
19,CCn1c(SCC#N)nc2ccccc2c1=O,"inconclusive: 29.1 µM [activator, partial curve, poor fit]"
20,O=C(O)c1ccccc1/C=N/NC(=S)NC1CCCCC1,inactive
